Experiment: physchem
Conditions: pH 8
Text: In the present invention, the distribution coefficient (octanol/water distribution coefficient) may be adopted as the index of “water soluble” and “liposoluble” in the “water soluble steroid” and the “liposoluble steroid.” The distribution coefficient can be expressed in log D in consideration of the influence of pH, and water solubility is indicated by a minus value while liposolubility is indicated by a plus value.
The distribution coefficient can be obtained according to the method of JIS […] or JIS […].

logD	Structure (SMILES)	distribution coefficient (log D)
–	C[C@H]1C[C@H]2[C@@H]3CCC4=CC(=O)C=C[C@]4(C)[C@@]3(F)[C@@H](O)C[C@]2(C)[C@@]1(O)C(=O)COP(=O)([O-])[O-].[Na+].[Na+] [betamethasone sodium phosphate]	−5
-5	C[C@@H]1C[C@H]2[C@@H]3CCC4=CC(=O)C=C[C@]4(C)[C@@]3(F)[C@@H](O)C[C@]2(C)[C@@]1(O)C(=O)COP(=O)(O)O [dexamethasone sodium phosphate]	–

From US20190167568A1, “Transdermal Drug Delivery System and Method for Using Same” (SENJU USA, INC., priority 2016, published 2019)
